Publication PMC9403797, “Back From the Dead: The Atypical Kinase Activity of a Pseudokinase Regulator of Cation Fluxes During Inducible Immunity” (Frontiers in Plant Science, 2022)
Results are given in words; binding and its absence hold for the method and conditions named. For part of these data: A result given as binding can be weak or reduced; the word gives no strength. Where a sequence is shown, tags or fusion partners need not be part of it.

Legend:
Test in all cases: peptide or protein array; functional protein microarrays (AtPMA-5000 and AtPMA-10000, about 15,000 Arabidopsis proteins) probed with 150 ul purified ILK1-V5 in solution for 1.5 h with 1% BSA, 5 mM MgCl2 and MnCl2; detected with Cy5-conjugated anti-V5 antibody; three probe arrays against two control arrays without probe; one-sided t-test, 5% significance, FDR; both purified
[1] = biological target: HAK5 potassium transporter (Arabidopsis)
MEKK19 (Arabidopsis) = biological target: MEKK19 (Arabidopsis)
[2] = biological target: KUP5 potassium transporter (Arabidopsis)

binding [1]: no binding
binding (MEKK19 (Arabidopsis)): binds
binding [2]: binds
B1: ILK1-V5 (integrin-linked kinase 1, Arabidopsis) (enzyme, UniProt F4IS56 1-479, looked up)
chain: MENITAQLKRGISRQFSTGSIRRTLSRQFTRQSSLDPRRTNMRFSFGRQSSLDPIRRSPDSSKSDDEPHMSVPENLDSTMQLLFMASKGDVRGIEELLDEGIDVNSIDLDGRTALHIAACEGHLGVVKALLSRRANIDARDRWGSTAAADAKYYGNLDVYNLLKARGAKVPKTRKTPMTVSNPREVPEYELNPLEVQVRKSDGISKGAYQVAKWNGTRVSVKILDKDSYSDPERINAFRHELTLLEKVRHPNVIQFVGAVTQNIPMMIVVEYNPKGDLSVYLQKKGRLSPSKALRFALDIARGMNYLHECKPDPIIHCDLKPKNILLDRGGQLKISGFGMIRLSKISQDKAKVANHKAHIDLSNYYIAPEVYKDEIFDLRVDAHSFGVILYEITEGVPVFHPRPPEEVARMMCLEGKRPVFKTKSRSYPPDIKELIEKCWHPEAGIRPTFSEIIIRLDKIVANCSKQGWWKDTFKFPWK
notes: ILK1, integrin-linked kinase 1, a pseudokinase of the Raf-like MAP3K family, Arabidopsis; also called purified ILK1-V5 protein; source: purified as described previously (Brauer et al., 2014, 2016); purity validated by mass spectrometry
